Measured values taken from paper PMC7025597.
No constants are given. Whether binding was seen depends on the method and setting. Some entries that bind do so weakly or less than the wild type. Sequences can lack the tags named with a protein.

Target: T1, IND-BD (UniProt O81313)
T1 sequence: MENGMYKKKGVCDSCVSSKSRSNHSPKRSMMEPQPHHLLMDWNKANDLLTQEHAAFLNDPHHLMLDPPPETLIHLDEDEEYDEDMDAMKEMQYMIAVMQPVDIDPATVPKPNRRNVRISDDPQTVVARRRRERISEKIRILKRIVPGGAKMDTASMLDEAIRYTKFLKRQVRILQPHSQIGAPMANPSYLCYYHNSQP
Assay: two-hybrid; pGADT7 (prey) and pGBKT7 (bait) fusions in yeast strain AH109; selective medium lacking Leu, Trp, His and Ade

- binding: binds
B1: SPT-AD (protein, UniProt Q9FUA4 1-373)
chain: MISQREEREEKKQRVMGDKKLISSSSSSSVYDTRINHHLHHPPSSSDEISQFLRHIFDRSSPLPSYYSPATTTTTASLIGVHGSGDPHADNSRSLVSHHPPSDSVLMSKRVGDFSEVLIGGGSGSAAACFGFSGGGNNNNVQGNSSGTRVSSSSVGASGNETDEYDCESEEGGEAVVDEAPSSKSGPSSRSSSKRCRAAEVHNLSEKRRRSRINEKMKALQSLIPNSNKTDKASMLDEAIEYLKQLQLQVQMLTMRNGINLHPLCLPGTTLHPLQLSQIRPPEATNDPLLNHTNQFASTSNAPEMINTVASSYALEPSIRSHFGPFPLLTSPVEMSREGGLTHPRLNIGHSNANITGEQALFDGQPDLKDRIT
